# Measured values from PubChem BioAssay AID504444 (National Center for Advancing Translational Sciences (NCATS), 2011).
# About 7,500 (2.1%) of roughly 360,000 compounds were called active. This list was built around the results that the source calls inconclusive (neither active nor inactive); the mix of calls is not that of the screen. The call rests on the fitted dose curve; in most records, active means well fitted inhibition curve with a large enough effect; inconclusive means small, poorly fitted or top-dose-only effect, or effect the other way; inactive means flat fitted curve, though single readings scatter. Where the call is inconclusive, the potency comes from a doubtful curve fit.
# Experiment: Nrf2 qHTS screen for inhibitors; further: nearly all actives have a fitted effect of over 60% in size
# Settings: A549 ARE-Fluc reporter, luciferase luminescence, 18-24 h; activity change, negative = inhibition: at 46 µM (top of the series)
# Summary of the method: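 In this cell-based qHTS, ARE-driven firefly luciferase in A549 cells reports Nrf2 activity; the luminescent signal after BugLite lysis is the measured value, with a prior CellTiter-Fluor read for cell health.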
# On the % scale 0 is the no-effect control and ±100 the full control effect; potency means the concentration at half of the fitted maximal effect.
Compound,"activity change, negative = inhibition",Potency
CS(=O)(=O)N(CC(=O)Nc1cccc(Cl)c1Cl)c1ccccc1,inactive: 5.25%,–
Cc1cc(F)ccc1S(=O)(=O)Nc1ccc(C(=O)N2CCCCCC2)cc1,–,"inconclusive: 32.6 µM [falling, partial curve, poor fit]"
Cc1cc(C(c2nnnn2Cc2ccccc2)N2CCOCC2)c(C)n1-c1ccc2c(c1)OCO2 (configuration not stated),–,"inconclusive: 32.6 µM [falling, single point]"
CC1Cc2ccccc2N1C1=CC(=O)CCC1 (configuration not stated),–,"inconclusive: 29.1 µM [falling, partial curve, poor fit]"
COc1ccccc1NS(=O)(=O)c1cc(C(=O)N2CCCCCC2)ccc1C,–,"inconclusive: 13 µM [falling, partial curve, poor fit]"
Cc1nnsc1NC(=O)OCc1ccc(Cl)cc1Cl,–,"inconclusive: 18.4 µM [falling, single point]"
O=C(c1ccc(Nc2nc3ccccc3n3nnnc23)cc1)N1CCN(c2cccc(C(F)(F)F)c2)CC1,–,"inconclusive: 0.0164 µM [falling, full curve, poor fit]"
O=C(Oc1ccccc1C(=O)Nc1ccccc1)c1ccc(Br)c([N+](=O)[O-])c1,–,"inconclusive: 29.1 µM [activator, single point]"
Cc1ccc(NC(=O)CN2C(=O)CC(C)Sc3ccccc32)c(C)c1 (configuration not stated),inactive: -11.2%,–
COC(=O)c1c(NC(=O)c2ccco2)sc(C(=O)Nc2ccc(F)cc2)c1C,–,"inconclusive: 1.46 µM [activator, full curve]"
O=S(=O)(c1cccc(NC(=S)N2CCN(c3ccc(F)cc3)CC2)c1)C(F)F,–,"inconclusive: 29.1 µM [falling, single point]"
COc1ccccc1-n1cnc2c(c1=O)c1nc3ccccc3nc1n2-c1ccc(C)cc1,–,"inconclusive: 13 µM [falling, partial curve]"
COc1cc(-c2nc(-c3cccc(C(F)(F)F)c3)no2)cc(OC)c1OC,–,"inconclusive: 5.17 µM [falling, full curve, poor fit]"
CN(C)c1ccc(N=Nc2cccc3ccoc23)cc1,–,"inconclusive: 13 µM [activator, partial curve, poor fit]"
CCOC(=O)N1CCN(C(=O)c2ccc3c(c2)N=C(C)c2cc(Cl)ccc2S3)CC1,–,"inconclusive: 29.1 µM [falling, single point]"
CCc1ccc(NC(=O)C(=O)NCC2CCCO2)cc1 (configuration not stated),–,"inconclusive: 14.6 µM [activator, partial curve]"
O=Cc1ccc(-n2cc(C=O)c3ccccc32)cc1,–,"inconclusive: 0.731 µM [falling, partial curve, poor fit]"

# Complete entries, quoted from the list. Values in the order: activity change, negative = inhibition	Potency
# O=S(=O)(c1cccc(NC(=S)N2CCN(c3ccc(F)cc3)CC2)c1)C(F)F is listed as –	inconclusive: 29.1 µM [falling, single point]
# COC(=O)c1c(NC(=O)c2ccco2)sc(C(=O)Nc2ccc(F)cc2)c1C is listed as –	inconclusive: 1.46 µM [activator, full curve]
